{
  "source": "paper PMC7795518",
  "about": "“Insights into the Interaction of LVV-Hemorphin-7 with Angiotensin II Type 1 Receptor” (International Journal of Molecular Sciences, 2020)",
  "binders": {"B1": {"name": "LVV-hemorphin-7 (peptide)", "peptide": "LVVYPWTQRF"}},
  "biological_target": "NanoLuc-AT1R (angiotensin II type 1 receptor) (UniProt P30556)",
  "assay": "FRET or BRET; NanoBRET saturation binding on live HEK293FT cells expressing Nluc-AT1R; cells first treated with 100 uM LVV-H7 (10 uM also tested) 20 min at 37 C, then increasing doses of BODIPY-AngII 40 min at 37 C; specific binding by subtracting wells with 1 uM olmesartan medoxomil; only the binder purified",
  "note": "Results are given in words; binding and its absence hold for the method and conditions named. Binding seen in cells or lysates may run through a third protein. Some results given as binding are weak or reduced against the parent protein; the word gives no strength.",
  "data": [
    {"binder": "B1", "values": [
      {"measurement": "binding", "result": "binds"}
    ]}
  ]
}
